Experimental data published in the supplement of paper PMC4604168 (melanoma cell lines).
The list shows a part of the results. Many values rest on one well or one pass, so single values are uncertain.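 Imaging used 1,536-well plates; nuclei positive for cleaved PARP by antibody were divided by total DNA-stained nuclei to yield the apoptosis fraction. Doses for screening kept most cells viable, and cell lines differ markedly in resting and induced cleaved-PARP levels.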

Columns and labels:
Assay in all cases: cleaved PARP positive nuclei fraction relative to DMSO control; melanoma cells; higher = more apoptosis
Details in all cases: library dose: low library concentration; 72 h
501Mel = tested on: 501Mel
A101D = tested on: A101D
A2058 = tested on: A2058
A375 = tested on: A375
C32 = tested on: C32
CBRC008 = tested on: CBRC008 (line from a melanoma biopsy)
CBRC014 = tested on: CBRC014 (line from a melanoma biopsy)
CBRC016 = tested on: CBRC016 (line from a melanoma biopsy)
CBRC017 = tested on: CBRC017 (line from a melanoma biopsy)
CBRC034 = tested on: CBRC034 (line from a melanoma biopsy)
COLO792 = tested on: COLO792
COLO800 = tested on: COLO800
COLO829 = tested on: COLO829
G361 = tested on: G361
IPC-298 = tested on: IPC-298
IST-MEL1 = tested on: IST-MEL1
LB2518-MEL = tested on: LB2518-MEL
LOXIMVI = tested on: LOXIMVI
MEL-HO = tested on: MEL-HO
CBRC013 = tested on: CBRC013 (line from a melanoma biopsy)

Row | Structure (SMILES) | cleaved PARP positive nuclei fraction (501Mel) | cleaved PARP positive nuclei fraction (A101D) | cleaved PARP positive nuclei fraction (A2058) | cleaved PARP positive nuclei fraction (A375) | cleaved PARP positive nuclei fraction (C32) | cleaved PARP positive nuclei fraction (CBRC008) | cleaved PARP positive nuclei fraction (CBRC014) | cleaved PARP positive nuclei fraction (CBRC016) | cleaved PARP positive nuclei fraction (CBRC017) | cleaved PARP positive nuclei fraction (CBRC034) | cleaved PARP positive nuclei fraction (COLO792) | cleaved PARP positive nuclei fraction (COLO800) | cleaved PARP positive nuclei fraction (COLO829) | cleaved PARP positive nuclei fraction (G361) | cleaved PARP positive nuclei fraction (IPC-298) | cleaved PARP positive nuclei fraction (IST-MEL1) | cleaved PARP positive nuclei fraction (LB2518-MEL) | cleaved PARP positive nuclei fraction (LOXIMVI) | cleaved PARP positive nuclei fraction (MEL-HO) | cleaved PARP positive nuclei fraction (CBRC013)
1 | COc1cc([C@@H]2c3cc4c(cc3[C@@H](O[C@@H]3O[C@@H]5CO[C@@H](C)O[C@H]5[C@H](O)[C@H]3O)[C@H]3COC(=O)[C@H]23)OCO4)cc(OC)c1O [etoposide] + CN1CCN(c2ccc3nc(-c4c(N)c5c(F)cccc5[nH]c4=O)[nH]c3c2)CC1 [Dovitinib] (first compound 0.02 µM, partner dose 0.1 µM) | 120% | 225% | 205% | 112% | 91.1% | 227% | 90.7% | 48.8% | 90% | 138% | 64.2% | 119% | 101% | 94.6% | 138% | 124% | 54.4% | 34.4% | 96.3% | 
2 | O=C(/C=C/c1cccnc1)NCCCCC1CCN(C(=O)c2ccccc2)CC1 + C[C@]1(O)C[C@@H](c2nc(-c3ccc4ccc(-c5ccccc5)nc4c3)c3c(N)nccn32)C1 [OSI906] (first compound 0.01 µM, partner dose 0.4 µM) | 207% | 86.3% | 102% | 690% | 79.4% | 938% | 133% | 938% | 456% | 520% | 280% | 215% | 222% | 2340% | 403% | 89.8% | 251% | 151% | 415% | 
3 | Cc1ccc(Nc2nccc(N(C)c3ccc4c(C)n(C)nc4c3)n2)cc1S(N)(=O)=O [Pazopanib] + Clc1ccc(Nc2nnc(Cc3ccncc3)c3ccccc23)cc1 [vatalanib] (first compound 0.4 µM, partner dose 2 µM) | 76.4% | 105% | 151% | 290% | 90% | 108% | 123% | 155% | 107% | 66.9% | 107% | 79.4% | 68.1% | 125% | 117% | 31.9% | 101% | 33.3% | 133% | 
4 | O=C(/C=C/c1cccnc1)NCCCCC1CCN(C(=O)c2ccccc2)CC1 + Nc1ncn([C@H]2C[C@H](O)[C@@H](CO)O2)c(=O)n1 [decitabine] (first compound 0.01 µM, partner dose 0.1 µM) | 51.5% | 142% | 55.2% | 95.8% | 71.8% | 4090% | 154% | 2200% | 651% | 841% | 938% | 88.3% | 353% | 4250% | 291% | 70.1% | 445% | 133% | 439% | 
5 | O=C(/C=C/c1cccnc1)NCCCCC1CCN(C(=O)c2ccccc2)CC1 + c1cc(-c2cnn3cc(-c4ccc(OCCN5CCCCC5)cc4)cnc23)ccn1 [Dorsomorphin] (first compound 0.01 µM, partner dose 0.4 µM) | 183% | 10% | 137% |  | 157% | 3370% | 104% | 176% | 282% |  | 446% | 193% | 68% | 1880% | 212% | 76.8% | 212% | 105% |  | 
6 | O=C(Nc1cc(C(F)(F)F)cc(C(F)(F)F)c1)c1cc(Cl)ccc1O + O=c1[nH]nc(Sc2ncc([N+](=O)[O-])s2)n1-c1ccc2c(c1)OCCO2 [BI78D3] (first compound 0.016 µM, partner dose 0.2 µM) | 135% | 42.2% | 90% | 105% | 40.1% | 178% | 110% | 137% | 100% | 43.7% | 121% | 33.6% | 41.8% | 84.3% | 180% | 62.9% | 45.8% | 57.8% | 123% | 
7 | CCCCCCCCCCCCCCCCCCOP(=O)([O-])OC1CC[N+](C)(C)CC1 [Perifosine] + COc1ccc(Cl)c(Nc2nc3ccccc3nc2NS(=O)(=O)c2cccc(NC(=O)C(C)(C)N)c2)c1 [XL147] (first compound 0.4 µM, partner dose 0.8 µM) | 76.1% | 95.7% | 73.4% | 104% | 65.4% | 142% | 116% | 113% | 155% | 181% | 142% | 96% | 143% | 86.4% | 57.9% | 223% | 209% | 94.8% | 45.8% | 
8 | CCCCCCCCCCCCCCCCCCOP(=O)([O-])OC1CC[N+](C)(C)CC1 [Perifosine] + Oc1cc(-c2nc(-c3ccccc3)[nH]c2-c2ccncc2)ccc1Cl [L779450] (first compound 0.4 µM, partner dose 0.2 µM) | 36.3% | 30.8% | 71.1% |  | 93.5% | 152% | 127% | 39.1% | 76.5% |  | 161% | 92.7% | 68.9% | 227% | 56.4% | 87.3% | 41.4% | 86.3% |  | 
9 | Cc1ccc(Nc2nccc(N(C)c3ccc4c(C)n(C)nc4c3)n2)cc1S(N)(=O)=O [Pazopanib] + COc1ccc2c(c1)CCC1C2CCC2(C)C(NCCCCCCN3C(=O)C=CC3=O)CCC12 [U73122] (first compound 0.4 µM, partner dose 0.4 µM) | 52.5% | 34.7% | 41.4% |  | 31.2% | 228% | 125% | 129% | 150% |  | 128% | 92.8% | 14.7% | 120% | 109% | 144% | 120% | 43.9% |  | 
10 | Cc1cc(Nc2cc(N3CCN(C)CC3)nc(Sc3ccc(NC(=O)C4CC4)cc3)n2)n[nH]1 [Tozasertib] + COc1ccc2c(c1)CCC1C2CCC2(C)C(NCCCCCCN3C(=O)C=CC3=O)CCC12 [U73122] (first compound 0.006 µM, partner dose 0.4 µM) | 54.2% | 51.7% | 168% |  | 51.9% | 110% | 102% | 123% | 233% |  | 115% | 130% | 114% | 81.1% | 136% | 86.3% | 140% | 178% |  | 
11 | CCCCCCCCCCCCCCCCCCOP(=O)([O-])OC1CC[N+](C)(C)CC1 [Perifosine] + OCc1c[nH]c2ccccc12 [Indole-3-carbinol] (first compound 0.4 µM, partner dose 0.8 µM) | 62.5% | 375% | 84.7% | 219% | 76.7% | 49.5% | 89.7% | 36% | 127% | 63.4% | 159% | 160% | 45.7% | 88.9% | 89.4% | 187% | 114% | 120% | 188% | 
12 | COc1cc([C@@H]2c3cc4c(cc3[C@@H](O[C@@H]3O[C@@H]5CO[C@@H](C)O[C@H]5[C@H](O)[C@H]3O)[C@H]3COC(=O)[C@H]23)OCO4)cc(OC)c1O [etoposide] + CC(C)(C)c1cnc(CSc2cnc(NC(=O)C3CCNCC3)s2)o1 [SNS-032] (first compound 0.02 µM, partner dose 0.01 µM) | 229% | 49.5% | 63.3% | 166% |  | 83.1% | 80.5% | 97% | 102% |  | 110% | 83.8% | 122% | 82.8% | 30.9% | 102% | 150% | 175% | 31.1% | 109%
13 | N#CC[C@H](C1CCCC1)n1cc(-c2ncnc3[nH]ccc23)cn1 [ruxolitinib] + C[C@@H](N)c1ccc(C(=O)Nc2ccnc3[nH]ccc23)cc1 [RKI983] (first compound 1 µM, partner dose 0.4 µM) | 39.6% | 162% | 61.8% | 115% | 75.9% | 46.9% | 110% | 238% | 95.4% | 100% | 78.3% | 180% | 77.3% | 120% | 27.4% | 260% | 68.2% | 102% | 87.2% | 
14 | COc1cc([C@@H]2c3cc4c(cc3[C@@H](O[C@@H]3O[C@@H]5CO[C@@H](C)O[C@H]5[C@H](O)[C@H]3O)[C@H]3COC(=O)[C@H]23)OCO4)cc(OC)c1O [etoposide] + Nc1ccn([C@@H]2O[C@H](CO)[C@@H](O)C2(F)F)c(=O)n1 [gemcitabine] (first compound 0.02 µM, partner dose 0.0004 µM) | 160% | 49.3% | 279% | 213% | 80.1% | 165% |  | 196% | 127% | 149% | 96% | 56.3% | 112% | 60.7% | 62.5% | 104% | 172% | 248% | 121% | 
15 | COc1cc([C@@H]2c3cc4c(cc3[C@@H](O[C@@H]3O[C@@H]5CO[C@@H](C)O[C@H]5[C@H](O)[C@H]3O)[C@H]3COC(=O)[C@H]23)OCO4)cc(OC)c1O [etoposide] + Cn1c(Nc2ccc(C(F)(F)F)cc2)nc2cc(Oc3ccnc(-c4ncc(C(F)(F)F)[nH]4)c3)ccc21 [CHIR265] (first compound 0.02 µM, partner dose 0.08 µM) | 110% | 150% | 196% | 392% | 226% | 104% |  | 238% | 127% | 61.7% | 406% | 79.5% | 16.2% | 179% | 293% | 36.5% | 172% | 64.5% | 211% | 
16 | Cc1cn(-c2cc(NC(=O)c3ccc(C)c(Nc4nccc(-c5cccnc5)n4)c3)cc(C(F)(F)F)c2)cn1 [nilotinib] + NCC(=O)Nc1ccc(-n2nc(C(F)(F)F)cc2-c2ccc3c(ccc4ccccc43)c2)cc1 [OSU03012] (first compound 0.2 µM, partner dose 1 µM) | 504% | 395% | 207% | 3840% | 108% |  | 90.1% | 310% | 119% |  | 192% | 146% | 89.7% | 181% | 101% | 110% | 93.4% | 76.6% | 99.5% | 140%

From no. 10 as far as 11, as listed above:
Row | Structure (SMILES) | cleaved PARP positive nuclei fraction (501Mel) | cleaved PARP positive nuclei fraction (A101D) | cleaved PARP positive nuclei fraction (A2058) | cleaved PARP positive nuclei fraction (A375) | cleaved PARP positive nuclei fraction (C32) | cleaved PARP positive nuclei fraction (CBRC008) | cleaved PARP positive nuclei fraction (CBRC014) | cleaved PARP positive nuclei fraction (CBRC016) | cleaved PARP positive nuclei fraction (CBRC017) | cleaved PARP positive nuclei fraction (CBRC034) | cleaved PARP positive nuclei fraction (COLO792) | cleaved PARP positive nuclei fraction (COLO800) | cleaved PARP positive nuclei fraction (COLO829) | cleaved PARP positive nuclei fraction (G361) | cleaved PARP positive nuclei fraction (IPC-298) | cleaved PARP positive nuclei fraction (IST-MEL1) | cleaved PARP positive nuclei fraction (LB2518-MEL) | cleaved PARP positive nuclei fraction (LOXIMVI) | cleaved PARP positive nuclei fraction (MEL-HO) | cleaved PARP positive nuclei fraction (CBRC013)
10 | Cc1cc(Nc2cc(N3CCN(C)CC3)nc(Sc3ccc(NC(=O)C4CC4)cc3)n2)n[nH]1 [Tozasertib] + COc1ccc2c(c1)CCC1C2CCC2(C)C(NCCCCCCN3C(=O)C=CC3=O)CCC12 [U73122] (first compound 0.006 µM, partner dose 0.4 µM) | 54.2% | 51.7% | 168% |  | 51.9% | 110% | 102% | 123% | 233% |  | 115% | 130% | 114% | 81.1% | 136% | 86.3% | 140% | 178% |  | 
11 | CCCCCCCCCCCCCCCCCCOP(=O)([O-])OC1CC[N+](C)(C)CC1 [Perifosine] + OCc1c[nH]c2ccccc12 [Indole-3-carbinol] (first compound 0.4 µM, partner dose 0.8 µM) | 62.5% | 375% | 84.7% | 219% | 76.7% | 49.5% | 89.7% | 36% | 127% | 63.4% | 159% | 160% | 45.7% | 88.9% | 89.4% | 187% | 114% | 120% | 188% | 
